These are yes or no findings as the source states them, for the method shown. Some results given as binding are weak or reduced against the parent protein; the word gives no strength.
Target: 经过磷酸化处理的全长Tau蛋白p-Tau (UniProt P10636)
Assay: sandwich ELISA, fixed antibody paired with the p-Tau 181 antibodies

Sequences of proteins named here, by UniProt entry; tags and fusion partners are left off. A change or cut given only in a name is not applied to a line headed by its entry.
UniProt P10636: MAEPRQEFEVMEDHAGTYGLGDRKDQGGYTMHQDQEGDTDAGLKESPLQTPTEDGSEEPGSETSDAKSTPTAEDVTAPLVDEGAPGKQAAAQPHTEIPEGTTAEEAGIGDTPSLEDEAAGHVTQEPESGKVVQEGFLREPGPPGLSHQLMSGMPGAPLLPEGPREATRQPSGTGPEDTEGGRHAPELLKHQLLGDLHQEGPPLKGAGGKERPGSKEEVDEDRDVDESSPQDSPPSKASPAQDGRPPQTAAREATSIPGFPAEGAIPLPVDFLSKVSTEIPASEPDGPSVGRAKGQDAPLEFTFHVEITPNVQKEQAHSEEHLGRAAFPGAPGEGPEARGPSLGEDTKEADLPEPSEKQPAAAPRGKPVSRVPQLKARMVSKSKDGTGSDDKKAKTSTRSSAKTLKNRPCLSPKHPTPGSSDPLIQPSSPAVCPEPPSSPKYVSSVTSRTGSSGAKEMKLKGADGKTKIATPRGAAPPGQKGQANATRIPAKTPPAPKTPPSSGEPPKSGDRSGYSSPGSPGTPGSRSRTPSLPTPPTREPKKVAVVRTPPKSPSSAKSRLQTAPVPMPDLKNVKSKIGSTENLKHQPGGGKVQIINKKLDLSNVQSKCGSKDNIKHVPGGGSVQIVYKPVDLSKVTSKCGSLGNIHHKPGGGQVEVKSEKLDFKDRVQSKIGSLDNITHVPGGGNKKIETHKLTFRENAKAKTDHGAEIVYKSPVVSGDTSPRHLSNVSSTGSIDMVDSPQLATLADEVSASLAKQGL

binding: binds
B1: Rabbit-Anti-Tau-mAb-A (antibody, V domains shown)
VH: QSVEESGGRLVKPDETLTLTCTVSGIDLSTYAMGWVRQAPGEGLEWIATIGISGGTYYASWAKGRFTISKTSTTVDLKMTSLTAADTATYFCASSRATTYPIWGPGTLVTVSS
VL: DIVMTQTASPVSAAVGGTVTINCQASQSISTALAWYQQKPGQPPKLLIYRASTLASGVPSRFSGSGSGTQFTLTISDLECADAATYYCQGDYYTKSTSYLNGFGGGTEVVVK

Source: patent CN117820472A
